Results published in PubChem BioAssay AID493014 (National Center for Advancing Translational Sciences (NCATS), 2011).
The list shows a part of the results. The main result of the screen is listed elsewhere. These columns were measured beside it and carry no call. The list favours compounds with an active or inconclusive main result. Words in brackets tell the shape of the fitted curve; partial curves, single points and poor fits give uncertain potencies.

Test: qHTS Assay to Find Inhibitors of Chronic Active B-Cell Receptor Signaling
Conditions: ABC-DLBCL IkBa-CBG/CBR reporter, luminescence ratio (green luciferase fused to IkBa over red control in TMD8 lymphoma cells), 4 h
In short: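 TMD8 human ABC-DLBCL cells with doxycycline-inducible IκBα–green luciferase fusion and unfused red luciferase, in 0.5% FBS medium; compounds up to 46 uM, 4 h at 37C. Green/red luminescence ratio, filter-overlap corrected, fitted to concentration-response curves.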

[1] = measured here: CBR red luminescence, cell number
[2] = measured here: IkBa-CBG green luminescence

SMILES	AC50 [1]	AC50 [2]
O=C(COc1cccc2ccccc12)N1CCN(c2ccccc2)CC1	18.4 µM [falling, single point]	
COc1ccccc1NS(=O)(=O)c1cccc(NC(=O)Nc2ccc(Cl)cc2)c1	22.4 µM [falling, single point]	
C/C(=N\NC(=O)c1cccc(C)c1)c1cccc(NC(=O)c2ccco2)c1	22.4 µM [falling, single point]	
COc1ccccc1CCC(=O)NNC(=O)c1ccncc1	29.1 µM [falling, single point]	
C=CCNC(=O)C1CC2Cn3c(nc4cc(C)c(C)cc43)C2N1C (configuration not stated)	35.5 µM [rising, single point]	
CC1(C)Cc2ccccc2/C(=C/C(=O)N2CCCCCC2)N1	10.3 µM [falling, partial curve, poor fit]	
CN(CCOc1ccc(Cl)cc1)C(=O)CNS(=O)(=O)c1ccc(N(C)C)c([N+](=O)[O-])c1	16.4 µM [falling, single point]	
COc1cccc(-c2ccc(NC(=O)C3CCCN(Cc4cnn(C)c4C)C3)cc2)c1 (configuration not stated)	12.6 µM [falling, single point]	
N#C/C(=C\c1ccc[nH]1)C(=O)c1ccccc1	1 µM [rising, partial curve, poor fit]	
CCOC(=O)C(NC(=O)NCc1cccc(C(F)(F)F)c1)(OCC)C(F)(F)F (configuration not stated)	6.51 µM [rising, partial curve, poor fit]	
COc1ccc(/C=N/NC(=O)c2nc(Cl)c(Cl)c(N)c2Cl)cc1COc1ccccc1F	0.447 µM [rising, full curve, poor fit]	
O=C(NC1CCCCC1)N1CCc2ccccc21	18.4 µM [falling, partial curve]	
O=C(O)CN1C(=O)c2ccc(C(=O)c3ccccc3)cc2C1=O	0.794 µM [falling, full curve, poor fit]	
CC1(C)CC(CCNC(=O)CCl)(c2ccccc2)CCO1 (configuration not stated)	10 µM [falling, partial curve]	
CCOc1ccccc1OCCOc1ccc(F)cc1	3.55 µM [rising, full curve, poor fit]	
O=S(=O)(c1cc(Cl)ccc1Br)N1CCOCC1	1.3 µM [rising, full curve, poor fit]	
O=C(NNC(=S)Nc1cccc2ccccc12)c1cccc(Br)c1	0.92 µM [falling, full curve]	
CC(C)N(C(=O)CSc1nc2ccccc2n1Cc1ccc(F)cc1)C(C)C	3.66 µM [falling, partial curve]	
COc1ccc(NC(=O)C(CC(C)C)NC(=O)C2CCC(C)CC2)c(OC)c1 (configuration not stated)	3.16 µM [rising, partial curve, poor fit]	
COc1ccc(-c2csc3ncnc(N4CCN(S(=O)(=O)c5ccc(C)c(C)c5)CC4)c23)cc1	18.4 µM [rising, partial curve, poor fit]	
COc1ccc(Nc2ncnc3ccccc23)c(OC)c1	14.6 µM [falling, single point]	
O=C(Nc1cccc(-n2cnnn2)c1)c1ccc(OC(F)(F)F)cc1	2.51 µM [rising, full curve, poor fit]	

Filtered by structure, the compounds so far containing bromine
SMILES	AC50 [1]	AC50 [2]
O=S(=O)(c1cc(Cl)ccc1Br)N1CCOCC1	1.3 µM [rising, full curve, poor fit]	
O=C(NNC(=S)Nc1cccc2ccccc12)c1cccc(Br)c1	0.92 µM [falling, full curve]	

The results go on.

SMILES	AC50 [1]	AC50 [2]
COc1cc(OC)c(OC)cc1/C=N/NC(=O)c1cc(-c2cccn2C)n[nH]1	35.5 µM [falling, single point]	
COc1ccccc1NC(=O)C1=C(C)NC(=O)NC1c1ccccc1[N+](=O)[O-] (configuration not stated)	2.24 µM [falling, full curve]	
Cc1ccc(-n2ncc3c(N4CCN(C)CC4)ncnc32)cc1C	15.8 µM [falling, single point]	
CCN(CC)C(=O)CN(c1ccc(F)c(Cl)c1)S(C)(=O)=O	35.5 µM [rising, partial curve, poor fit]	
Cc1nc2ccccc2c2nc(NC(=O)C(F)(F)F)nn12	4.47 µM [falling, full curve, poor fit]	
COc1ccc(C2=Nn3c(nnc3-c3ccccc3)SC2)cc1OC		29.1 µM [falling, single point]
Cn1nnc(NC(=S)NC(=O)c2ccc(-c3ccc(Br)cc3)o2)n1	6.31 µM [rising, single point]	
COc1ccc(NC(=O)/C=C\C(=O)N(c2ccc(C(C)C)cc2)C(C(=O)NCc2ccco2)c2ccc(F)cc2)cc1 (configuration not stated)	7.94 µM [falling, partial curve, poor fit]	
COc1cnc(N(C)C)nc1Sc1cccc(Cl)c1	16.4 µM [rising, partial curve]	
Nc1[nH]ncc1C(=O)Nc1cccc(C(F)(F)F)c1	35.5 µM [rising, single point]	
Cc1sc2ncnc(N(C)C3CCCCC3)c2c1C	7.08 µM [rising, partial curve, poor fit]	
O=C(CN1C(=O)NC2(CCCC2)C1=O)Nc1nc2ccccc2s1	20.6 µM [falling, partial curve]	
O=C(NCc1ccco1)C1CCN(c2nc3ccccc3n2Cc2ccccc2F)CC1	36.6 µM [falling, partial curve, poor fit]	
O=C(Nc1ccc(N2CCOCC2)c(Cl)c1)c1ccccc1Cl	1.58 µM [falling, full curve]	
O=C(Nc1ccc(F)cc1F)c1cc(-c2ccco2)on1	5.01 µM [falling, partial curve]	
COCCCNC(=O)/C=C1\Sc2ccccc2N(Cc2ccccc2F)C1=O	28.2 µM [rising, single point]	
CC1=C(C)CS(=O)N(S(=O)(=O)c2ccc(Cl)cc2)C1 (configuration not stated)	35.5 µM [rising, single point]	35.5 µM [falling, single point]
C#CCOc1ccccc1/C=N/NC(=O)c1ccccc1OCc1ccccc1	0.316 µM [falling, full curve]	
COc1ccc(C)cc1S(=O)(=O)NC1CCCCC1C (configuration not stated)	0.731 µM [falling, partial curve, poor fit]	
O=C(CC1SC(=Nc2ccccc2)N(Cc2ccccn2)C1=O)Nc1cccc(Cl)c1 (configuration not stated)		29.1 µM [rising, partial curve, poor fit]
O=C(NCc1ccco1)C(=O)c1c[nH]c2ccccc12	7.08 µM [falling, partial curve]	
CN(Cc1ccco1)S(=O)(=O)c1nnc(NC(=O)c2cccc(Cl)c2)s1	35.5 µM [falling, single point]	

SMILES	AC50 [1]	AC50 [2]
COc1cc(C(=O)N/N=C/C2CC=CCC2)cc(OC)c1OC (configuration not stated)	1.84 µM [rising, full curve]	2.06 µM [falling, partial curve]
CC(C)C[C@@H]1NC(=O)[C@H](Cc2ccc(O)cc2)NC(=O)c2cc([N+](=O)[O-])cc(I)c2NCCC[C@@H](C(N)=O)NC1=O	0.0326 µM [rising, full curve, poor fit]	
CC(=O)Nc1ccc(S(=O)(=O)Nc2nc3c(s2)CCCC3)cc1	29.1 µM [falling, single point]	
CN(C)c1ccc(C(=O)N2CC(=O)N(CCc3ccccc3)C(=O)C2)cc1	2.51 µM [rising, partial curve]	
Cc1ccc(NC(=O)Cn2c(=O)oc3cc(S(=O)(=O)N4CCCCCC4)ccc32)cc1Cl	35.5 µM [rising, single point]	
CC(CCO)Nc1nc2c([nH]1)c(=O)n(C)c(=O)n2C (configuration not stated)	4.61 µM [falling, full curve]	
O=C(N1CCCCC1)N1CCN(c2ccc(Cl)cc2)CC1	10.3 µM [rising, partial curve]	
O=C(NNC(=O)c1ccc2ccccc2n1)c1ccc(O)cc1	1.84 µM [falling, full curve]	
Cn1cc(S(=O)(=O)NC(c2ccccc2)c2ccccc2)c(=O)n(C)c1=O	22.4 µM [rising, single point]	
CN1/C(=N\O)c2cccc3cccc1c23	35.5 µM [falling, single point]	
COc1cc(C#Cc2c(-c3cncn3C)n(C)c3ccc(-c4cnc(N5CCOCC5)nc4)cc23)cc(OC)c1	0.366 µM [rising, full curve]	
O=C(Nc1ccc(F)cc1)Nc1ccc(Cl)cn1	6.51 µM [rising, single point]	
CCOc1ccccc1OCC(=O)Nc1nc2ccccc2[nH]1	11.2 µM [falling, partial curve]	
CC(=O)c1cc(NC(=O)c2ccc([N+](=O)[O-])cc2)c(=O)oc1C	35.5 µM [falling, single point]	
Cc1cc(C)n(-c2nc(NCCN(C)C)c3c4c(sc3n2)COC(C)(C)C4)n1	12.6 µM [falling, partial curve, poor fit]	
Cc1cc(=O)n(CCc2ccccc2)c(O)c1C#N	0.517 µM [falling, partial curve, poor fit]	
Cc1ccc(S(=O)(=O)N2CCCC2C(=O)OCc2nc3ccccc3s2)cc1 (configuration not stated)	3.26 µM [rising, full curve]	
COc1ccc(N2CCN(C(=O)CSc3nnc4c(C)cc5c(C)cc(C)cc5n34)CC2)cc1	13 µM [rising, partial curve]	
CCn1c(COc2ccc(=O)n(-c3ccccc3)n2)nnc1SCc1ccc(C)cc1	20 µM [falling, partial curve, poor fit]	
CN(C)Cc1c(O)ccc2oc(Cc3ccccc3)cc12	10.3 µM [falling, partial curve]	23.1 µM [rising, partial curve, poor fit]
